No constants are given. Whether binding was seen depends on the method and setting. Binding seen in cells or lysates may run through a third protein. Some binding calls cover weakened binding; strength is not graded here. For some of these results: Tags and fused reporters may be left off the sequences shown. Values belong to the molecule of their own block, whether it stands above or below them.
How the values were obtained:
[1] = target: T1, mitochondrial Lon (endogenous) (human (endogenous in HCT-15)) (UniProt P36776); experiment: co-IP; endogenous proteins; whole cell lysates of HCT-15 cells treated with CoCl2 (200 μM for 18 h); precipitated with anti-ULK1 (Fig. 5A) or with Lon (Fig. S5A); Western blot
T1 sequence: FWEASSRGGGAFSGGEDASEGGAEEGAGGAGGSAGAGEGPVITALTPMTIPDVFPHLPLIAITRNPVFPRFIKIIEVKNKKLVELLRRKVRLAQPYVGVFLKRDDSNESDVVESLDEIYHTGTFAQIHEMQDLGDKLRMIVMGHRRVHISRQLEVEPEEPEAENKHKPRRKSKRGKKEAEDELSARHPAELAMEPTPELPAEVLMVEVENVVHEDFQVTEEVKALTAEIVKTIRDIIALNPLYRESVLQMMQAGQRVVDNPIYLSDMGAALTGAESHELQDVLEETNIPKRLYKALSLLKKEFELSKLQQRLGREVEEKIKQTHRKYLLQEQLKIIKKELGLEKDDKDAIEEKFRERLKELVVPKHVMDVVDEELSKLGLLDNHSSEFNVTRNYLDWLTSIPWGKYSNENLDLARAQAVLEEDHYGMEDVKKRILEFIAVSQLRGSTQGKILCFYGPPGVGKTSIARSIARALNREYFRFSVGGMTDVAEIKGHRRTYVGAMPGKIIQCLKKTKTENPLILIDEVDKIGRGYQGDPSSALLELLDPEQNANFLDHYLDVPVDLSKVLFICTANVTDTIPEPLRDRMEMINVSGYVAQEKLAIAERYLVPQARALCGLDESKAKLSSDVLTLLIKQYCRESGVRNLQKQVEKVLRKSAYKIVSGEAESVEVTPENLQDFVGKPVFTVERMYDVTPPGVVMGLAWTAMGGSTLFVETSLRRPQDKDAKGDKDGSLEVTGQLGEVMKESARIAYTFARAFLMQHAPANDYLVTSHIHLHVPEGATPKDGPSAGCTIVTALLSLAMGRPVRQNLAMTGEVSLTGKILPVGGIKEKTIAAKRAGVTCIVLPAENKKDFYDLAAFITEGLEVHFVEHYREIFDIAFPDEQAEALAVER

By UniProt entry, the sequences of proteins in these tests, tags left out.
UniProt Q8TDY2: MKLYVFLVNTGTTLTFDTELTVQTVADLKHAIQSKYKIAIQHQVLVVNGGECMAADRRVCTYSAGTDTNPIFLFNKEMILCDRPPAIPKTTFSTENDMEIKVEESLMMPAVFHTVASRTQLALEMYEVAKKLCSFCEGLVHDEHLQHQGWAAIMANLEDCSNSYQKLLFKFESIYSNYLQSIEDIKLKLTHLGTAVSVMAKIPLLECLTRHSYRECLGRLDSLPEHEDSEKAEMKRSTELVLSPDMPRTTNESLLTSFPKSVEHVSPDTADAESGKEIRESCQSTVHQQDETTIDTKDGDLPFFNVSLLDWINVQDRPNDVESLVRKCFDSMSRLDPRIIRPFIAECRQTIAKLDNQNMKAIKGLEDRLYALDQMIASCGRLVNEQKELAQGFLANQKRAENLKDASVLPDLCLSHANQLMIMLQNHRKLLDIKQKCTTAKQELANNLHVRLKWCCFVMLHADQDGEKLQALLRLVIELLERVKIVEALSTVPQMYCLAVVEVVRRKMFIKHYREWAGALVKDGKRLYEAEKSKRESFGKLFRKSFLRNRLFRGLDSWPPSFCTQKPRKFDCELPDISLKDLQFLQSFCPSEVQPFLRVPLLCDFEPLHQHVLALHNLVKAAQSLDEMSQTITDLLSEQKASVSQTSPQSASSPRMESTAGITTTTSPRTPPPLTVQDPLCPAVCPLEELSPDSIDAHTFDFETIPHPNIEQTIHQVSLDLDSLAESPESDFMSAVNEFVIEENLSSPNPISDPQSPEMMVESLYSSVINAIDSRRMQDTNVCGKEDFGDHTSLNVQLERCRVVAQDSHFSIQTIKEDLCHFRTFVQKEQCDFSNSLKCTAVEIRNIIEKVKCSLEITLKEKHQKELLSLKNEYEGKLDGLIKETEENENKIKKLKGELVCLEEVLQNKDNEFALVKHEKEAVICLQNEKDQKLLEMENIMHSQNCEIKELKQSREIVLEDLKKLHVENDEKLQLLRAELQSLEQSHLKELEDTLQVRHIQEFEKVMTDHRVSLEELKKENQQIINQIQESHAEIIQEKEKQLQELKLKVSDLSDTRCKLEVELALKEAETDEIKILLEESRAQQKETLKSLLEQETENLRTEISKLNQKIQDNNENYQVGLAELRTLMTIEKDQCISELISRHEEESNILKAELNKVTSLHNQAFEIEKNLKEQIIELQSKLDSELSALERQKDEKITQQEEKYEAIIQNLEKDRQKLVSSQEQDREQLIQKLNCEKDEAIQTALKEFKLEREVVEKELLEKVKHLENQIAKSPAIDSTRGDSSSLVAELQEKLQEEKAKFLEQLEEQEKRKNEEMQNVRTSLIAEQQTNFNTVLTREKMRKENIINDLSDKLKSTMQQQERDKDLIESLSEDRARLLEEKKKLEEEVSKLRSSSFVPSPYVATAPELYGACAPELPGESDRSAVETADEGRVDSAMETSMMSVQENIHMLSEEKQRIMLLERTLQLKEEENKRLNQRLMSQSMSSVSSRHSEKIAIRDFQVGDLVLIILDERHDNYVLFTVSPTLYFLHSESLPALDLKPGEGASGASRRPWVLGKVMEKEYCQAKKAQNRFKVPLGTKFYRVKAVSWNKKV

[2] = target: T2, ULK1 (Unc-51 like kinase), endogenous (human (endogenous in HCT-15)) (UniProt O75385); experiment: as above
T2 sequence: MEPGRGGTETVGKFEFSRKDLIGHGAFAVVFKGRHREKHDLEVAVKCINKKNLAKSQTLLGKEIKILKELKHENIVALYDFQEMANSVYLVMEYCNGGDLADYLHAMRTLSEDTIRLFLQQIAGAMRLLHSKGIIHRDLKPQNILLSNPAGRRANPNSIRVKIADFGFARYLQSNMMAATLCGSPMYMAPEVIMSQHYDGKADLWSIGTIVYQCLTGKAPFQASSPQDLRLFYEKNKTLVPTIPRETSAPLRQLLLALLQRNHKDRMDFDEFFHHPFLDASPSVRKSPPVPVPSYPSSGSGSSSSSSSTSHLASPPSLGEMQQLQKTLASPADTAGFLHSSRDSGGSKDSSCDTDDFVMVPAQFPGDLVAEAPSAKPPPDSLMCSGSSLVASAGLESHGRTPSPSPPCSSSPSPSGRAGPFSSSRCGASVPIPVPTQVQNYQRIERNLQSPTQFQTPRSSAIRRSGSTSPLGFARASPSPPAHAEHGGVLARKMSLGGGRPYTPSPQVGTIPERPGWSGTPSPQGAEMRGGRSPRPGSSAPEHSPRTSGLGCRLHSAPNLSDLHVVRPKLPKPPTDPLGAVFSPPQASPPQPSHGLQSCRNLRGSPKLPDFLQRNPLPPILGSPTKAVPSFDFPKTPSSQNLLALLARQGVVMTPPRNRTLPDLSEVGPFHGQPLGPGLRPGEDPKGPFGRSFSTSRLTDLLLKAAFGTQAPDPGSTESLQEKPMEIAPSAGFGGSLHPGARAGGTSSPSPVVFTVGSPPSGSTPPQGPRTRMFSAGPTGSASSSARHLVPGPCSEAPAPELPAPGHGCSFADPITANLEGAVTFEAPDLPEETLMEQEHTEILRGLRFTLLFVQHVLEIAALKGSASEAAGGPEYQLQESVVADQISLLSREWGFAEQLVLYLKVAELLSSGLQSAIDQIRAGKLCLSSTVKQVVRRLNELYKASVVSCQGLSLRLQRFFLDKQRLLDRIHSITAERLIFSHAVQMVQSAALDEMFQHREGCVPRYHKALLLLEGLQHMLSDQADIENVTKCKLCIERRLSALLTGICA

Flag-ULK1 [3] = target: T3, Flag-ULK1 (UniProt O75385); experiment: co-IP; whole cell lysates of HCT-15 cells transfected with Flag-ULK1 or vector; precipitated with anti-ULK1; Western blot
T3 sequence: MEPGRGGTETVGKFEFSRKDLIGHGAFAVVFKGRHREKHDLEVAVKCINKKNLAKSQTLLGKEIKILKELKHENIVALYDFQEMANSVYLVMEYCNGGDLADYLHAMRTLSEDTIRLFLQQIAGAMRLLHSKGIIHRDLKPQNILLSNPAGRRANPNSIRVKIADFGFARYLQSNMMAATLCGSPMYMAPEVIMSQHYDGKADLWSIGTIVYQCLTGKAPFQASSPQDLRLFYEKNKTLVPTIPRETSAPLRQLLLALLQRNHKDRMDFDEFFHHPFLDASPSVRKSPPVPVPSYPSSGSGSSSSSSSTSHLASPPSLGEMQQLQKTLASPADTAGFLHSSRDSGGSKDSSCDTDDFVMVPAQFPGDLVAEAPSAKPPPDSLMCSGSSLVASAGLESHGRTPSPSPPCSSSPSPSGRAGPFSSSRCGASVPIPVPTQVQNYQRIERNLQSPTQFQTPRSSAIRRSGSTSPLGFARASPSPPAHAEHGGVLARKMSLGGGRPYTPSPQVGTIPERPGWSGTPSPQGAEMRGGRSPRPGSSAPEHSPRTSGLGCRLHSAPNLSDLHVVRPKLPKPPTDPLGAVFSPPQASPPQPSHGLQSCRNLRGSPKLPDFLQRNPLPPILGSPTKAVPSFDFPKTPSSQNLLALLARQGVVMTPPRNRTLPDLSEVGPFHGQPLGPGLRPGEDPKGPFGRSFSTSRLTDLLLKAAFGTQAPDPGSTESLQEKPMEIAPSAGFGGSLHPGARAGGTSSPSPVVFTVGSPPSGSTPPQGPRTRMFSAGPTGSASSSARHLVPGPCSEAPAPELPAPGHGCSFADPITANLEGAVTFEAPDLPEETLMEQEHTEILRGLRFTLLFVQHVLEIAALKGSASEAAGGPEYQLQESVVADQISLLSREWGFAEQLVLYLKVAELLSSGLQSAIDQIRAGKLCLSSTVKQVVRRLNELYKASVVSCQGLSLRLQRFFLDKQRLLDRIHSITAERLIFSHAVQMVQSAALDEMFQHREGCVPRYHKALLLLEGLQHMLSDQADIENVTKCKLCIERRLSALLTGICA

Flag-ULK1 [4] = target: T3, Flag-ULK1; experiment: co-IP; whole cell lysates of HCT-15 cells co-transfected with myc-Lon and Flag-ULK1; precipitated with anti-myc (Fig. 5C) or anti-Flag (Fig. S5B); Western blot

- binding [1]: binds
Molecule: FIP200 (RB1CC1), endogenous (from UniProt Q8TDY2 1-1594)

- binding [2]: binds
- binding (Flag-ULK1 [3]): binds
B1: mitochondrial Lon (endogenous) (protein, UniProt P36776 68-959)
chain: FWEASSRGGGAFSGGEDASEGGAEEGAGGAGGSAGAGEGPVITALTPMTIPDVFPHLPLIAITRNPVFPRFIKIIEVKNKKLVELLRRKVRLAQPYVGVFLKRDDSNESDVVESLDEIYHTGTFAQIHEMQDLGDKLRMIVMGHRRVHISRQLEVEPEEPEAENKHKPRRKSKRGKKEAEDELSARHPAELAMEPTPELPAEVLMVEVENVVHEDFQVTEEVKALTAEIVKTIRDIIALNPLYRESVLQMMQAGQRVVDNPIYLSDMGAALTGAESHELQDVLEETNIPKRLYKALSLLKKEFELSKLQQRLGREVEEKIKQTHRKYLLQEQLKIIKKELGLEKDDKDAIEEKFRERLKELVVPKHVMDVVDEELSKLGLLDNHSSEFNVTRNYLDWLTSIPWGKYSNENLDLARAQAVLEEDHYGMEDVKKRILEFIAVSQLRGSTQGKILCFYGPPGVGKTSIARSIARALNREYFRFSVGGMTDVAEIKGHRRTYVGAMPGKIIQCLKKTKTENPLILIDEVDKIGRGYQGDPSSALLELLDPEQNANFLDHYLDVPVDLSKVLFICTANVTDTIPEPLRDRMEMINVSGYVAQEKLAIAERYLVPQARALCGLDESKAKLSSDVLTLLIKQYCRESGVRNLQKQVEKVLRKSAYKIVSGEAESVEVTPENLQDFVGKPVFTVERMYDVTPPGVVMGLAWTAMGGSTLFVETSLRRPQDKDAKGDKDGSLEVTGQLGEVMKESARIAYTFARAFLMQHAPANDYLVTSHIHLHVPEGATPKDGPSAGCTIVTALLSLAMGRPVRQNLAMTGEVSLTGKILPVGGIKEKTIAAKRAGVTCIVLPAENKKDFYDLAAFITEGLEVHFVEHYREIFDIAFPDEQAEALAVER

- binding (Flag-ULK1 [4]): binds
B2: myc-Lon (protein, UniProt P36776 68-959)
chain: FWEASSRGGGAFSGGEDASEGGAEEGAGGAGGSAGAGEGPVITALTPMTIPDVFPHLPLIAITRNPVFPRFIKIIEVKNKKLVELLRRKVRLAQPYVGVFLKRDDSNESDVVESLDEIYHTGTFAQIHEMQDLGDKLRMIVMGHRRVHISRQLEVEPEEPEAENKHKPRRKSKRGKKEAEDELSARHPAELAMEPTPELPAEVLMVEVENVVHEDFQVTEEVKALTAEIVKTIRDIIALNPLYRESVLQMMQAGQRVVDNPIYLSDMGAALTGAESHELQDVLEETNIPKRLYKALSLLKKEFELSKLQQRLGREVEEKIKQTHRKYLLQEQLKIIKKELGLEKDDKDAIEEKFRERLKELVVPKHVMDVVDEELSKLGLLDNHSSEFNVTRNYLDWLTSIPWGKYSNENLDLARAQAVLEEDHYGMEDVKKRILEFIAVSQLRGSTQGKILCFYGPPGVGKTSIARSIARALNREYFRFSVGGMTDVAEIKGHRRTYVGAMPGKIIQCLKKTKTENPLILIDEVDKIGRGYQGDPSSALLELLDPEQNANFLDHYLDVPVDLSKVLFICTANVTDTIPEPLRDRMEMINVSGYVAQEKLAIAERYLVPQARALCGLDESKAKLSSDVLTLLIKQYCRESGVRNLQKQVEKVLRKSAYKIVSGEAESVEVTPENLQDFVGKPVFTVERMYDVTPPGVVMGLAWTAMGGSTLFVETSLRRPQDKDAKGDKDGSLEVTGQLGEVMKESARIAYTFARAFLMQHAPANDYLVTSHIHLHVPEGATPKDGPSAGCTIVTALLSLAMGRPVRQNLAMTGEVSLTGKILPVGGIKEKTIAAKRAGVTCIVLPAENKKDFYDLAAFITEGLEVHFVEHYREIFDIAFPDEQAEALAVER
